# Reference: PubChem BioAssay AID445 (National Center for Advancing Translational Sciences (NCATS), 2006)
# Some of the results follow. Shown are side measurements of this screen, not its main read-out; they come without a call. Most of these compounds were active or inconclusive in the main read-out, so they are no random draw. Words in brackets tell the shape of the fitted curve; partial curves, single points and poor fits give uncertain potencies.
# Assay: IkB Signaling
# Settings: ABC-DLBCL IkBa-CBG/CBR dual luciferase ratio (green luciferase fused to IkBa over red control in OCI-Ly3 lymphoma cells), 4 h
# Procedure, shortened: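 Luminescence ratio of IκBα-fused green versus native red beetle luciferase in OCI-Ly3 cells, 4 h post-doxycycline with compound; red signal alone, scaled from basal (0%) to zero light (-100%), flagged nonspecific or cytotoxic effects.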
# [1] = measured here: control luc red channel unless noted
# [2] = measured here: IkB-luc green channel
# [3] = measured here: control luc red channel
smiles,measurement,setting,value
COc1ccc2c(CC(=O)Nc3ccc(OC)c(NS(=O)(=O)c4ccc(F)cc4)c3)coc2c1,AC50,[1],"10 µM [falling, partial curve]"
Cc1cccc(-n2cnc3cc(C(=O)NC4CCCCCC4)ccc32)c1,AC50,[1],"20 µM [falling, partial curve]"
Cc1cccc(OCC(=O)Nc2ccccc2C(=O)OCc2cc(=O)n3nc(C4CC4)sc3n2)c1,AC50,[1],"12.6 µM [falling, partial curve]"
Cc1ccc(NC(=O)c2ccc(NS(=O)(=O)c3c(C)noc3C)cc2)cc1C,AC50,[1],"7.94 µM [falling, partial curve]"
CCn1cc(C(=O)Nc2ccc(C(C)C)cc2)c2cc(OC)c(OC)cc2c1=O,AC50,[1],"5.01 µM [falling, partial curve]"
CCOC(=O)c1ccc(NC(=O)c2c(NCc3cc(OC)ccc3OC)sc3c2CCC3)cc1,AC50,[2],"6.31 µM [rising, single point]"
same,AC50,[3],"39.8 µM [falling, single point]"
CCc1cnc2c(c1SCCC(C)C)c(=O)n(C)c(=O)n2C,AC50,[1],"12.6 µM [falling, partial curve]"
COc1cccc(-c2nc(SCC(=O)NC3CCCC3)c(-c3ccc(F)cc3)[nH]2)c1,AC50,[1],"25.1 µM [falling, partial curve]"
N#Cc1c(N)c(C#N)c(-c2ccc(O)cc2)c2c1CCCC2,AC50,[1],"31.6 µM [falling, single point]"
COC(=O)c1ccc(Nc2ncnc3c2cnn3-c2ccccc2)cc1,AC50,[1],"0.794 µM [falling, full curve]"
COc1cc(-c2nnc(SCC(=O)Oc3ccc(C)cc3C)o2)cc(OC)c1OC,AC50,[1],"12.6 µM [falling, partial curve]"
Nc1ccccc1S[C@@H](C[N+](=O)[O-])c1ccc2c(c1)OCO2,AC50,[1],"3.98 µM [rising, partial curve] [measured here: IkB-luc green channel]"
CCOC(=O)C1(C)C=C(Nc2cccc(C)c2)C(=O)N1c1ccccc1 (configuration not stated),AC50,[1],"7.94 µM [falling, partial curve]"
Cc1ccc(-n2c(SCc3cn4ccsc4n3)nc3ccccc3c2=O)cc1,AC50,[1],"25.1 µM [falling, single point]"
CCOC(=O)c1cc(-c2ccc(OC)cc2)n(CCC(=O)Nc2ccc(OC)cc2OC)c1C,AC50,[1],"15.8 µM [falling, partial curve]"
CCOc1ccc(C(=O)Nc2ccc3nc(SCC(=O)N(C)c4ccccc4)sc3c2)cc1,AC50,[1],"3.16 µM [falling, full curve]"
COc1ccccc1CNC(=O)c1ccc(Nc2nc3ccccc3n3nnnc23)cc1,AC50,[1],"3.98 µM [falling, full curve]"
CCOc1ccc(/C=C/c2nc3ccccc3n2S(=O)(=O)c2cccc(Cl)c2)cc1,AC50,[1],"10 µM [falling, partial curve]"
CCc1ccccc1-n1c2c(cc(-c3nc(-c4ccc(Cl)cc4)cs3)c1=O)C(=O)CC(C)(C)C2,AC50,[1],"39.8 µM [falling, single point]"
CC(=O)N1c2ccc(S(=O)(=O)NCC3CCC(C(=O)Nc4ccc(F)cc4)CC3)cc2CC1C (configuration not stated),AC50,[1],"39.8 µM [falling, single point]"
COc1ccc(CNC(=O)c2ccc3c(c2)CCN3S(=O)(=O)c2ccc(Cl)cc2)cc1,AC50,[1],"7.94 µM [falling, partial curve]"
Cc1ccc(-c2nn3c(=O)cc(CN4CCN(S(=O)(=O)c5ccc(Cl)cc5)CC4)nc3s2)cc1,AC50,[1],"0.0501 µM [falling, full curve, poor fit]"
CC(NC(=O)C1=Cc2ccccc2OC1)c1ccccc1 (configuration not stated),AC50,[1],"15.8 µM [falling, partial curve]"
COc1ccc(-c2ccc(CCC(=O)O)n2NC(=O)c2cccs2)cc1,AC50,[1],"2 µM [falling, full curve, poor fit]"
CC(C)c1ccc(NC(=O)C(NS(=O)(=O)c2ccc3c(c2)CCC(=O)N3)c2ccccc2)cc1 (configuration not stated),AC50,[1],"31.6 µM [falling, single point]"
CCOCN(C(=O)Cn1c(CC(C)C)nc2ccccc21)c1c(C)cccc1CC,AC50,[1],"25.1 µM [falling, single point]"
CCOc1ccccc1Nc1ncnc2c1c(-c1ccccc1)cn2-c1ccc(OC)cc1,AC50,[1],"12.6 µM [falling, partial curve]"
O=C1c2[nH]nc(-c3ccccc3O)c2C(c2ccc(Cl)cc2)N1CCc1ccccc1 (configuration not stated),AC50,[1],"3.16 µM [falling, full curve]"
CCOC(=O)/C(C#N)=C1/C=C(C)NC(c2ccccc2O)=N1,AC50,[1],"6.31 µM [falling, full curve]"
COc1cc(OC)cc(-c2cc3nc(C)c(CCC(=O)Nc4ccc(F)c(Cl)c4)c(C)n3n2)c1,AC50,[1],"1.58 µM [falling, full curve]"
Cn1ccnc1SCC(=O)Nc1ccc(Oc2ccccc2)cc1,AC50,[1],"15.8 µM [falling, single point]"
Cc1cc(C)cc(NC(=O)c2ncn(-c3ccccc3)n2)c1,AC50,[1],"1.26 µM [falling, full curve]"
CN1CCN(c2ncc3nc(-c4cn(C)c5ccccc45)c(=O)n(Cc4cccs4)c3n2)CC1,AC50,[2],"6.31 µM [falling, single point]"
same,AC50,[3],"6.31 µM [falling, single point]"
COc1ccc2[nH]cc(CCNC(=O)c3cnn(-c4ccccc4Cl)c3C3CCN(C(=O)OC(C)(C)C)CC3)c2c1,AC50,[1],"15.8 µM [falling, partial curve]"
COc1ccc(-c2[nH]c(-c3cccc(OC)c3)nc2SCC(=O)NCc2ccco2)cc1,AC50,[1],"15.8 µM [falling, partial curve]"
CCOc1ccc(C(=O)Nc2ccc(-c3nc4ccccc4s3)c(C)c2)cc1OCC,AC50,[1],"3.16 µM [rising, full curve]"
Cc1cc2nc(-c3cccc(NC(=O)c4ccc(Br)o4)c3C)oc2cc1C,AC50,[1],"3.16 µM [falling, full curve]"
Cc1cccc(N2CCN(C(=O)c3ccc(NC(=O)c4nsc5ccccc45)cc3)CC2)c1C,AC50,[1],"0.2 µM [falling, full curve]"
Cc1nc2c(C(=O)NCCc3ccccc3)c[nH]n2c(=O)c1Cc1ccc(F)cc1Cl,AC50,[1],"6.31 µM [falling, partial curve]"
COc1ccc(CCNC(=O)c2c(C)nn(-c3ccc(F)cc3)c2-n2cccc2)c(OC)c1OC,AC50,[1],"15.8 µM [falling, partial curve]"
COc1ccc(-n2ncc(C(=O)Nc3ccc4c(c3)OCCO4)c2C2CCN(C(=O)OC(C)(C)C)CC2)cc1,AC50,[1],"25.1 µM [falling, partial curve, poor fit]"
O=C(NCCc1ccccc1)c1ccc2c(c1)CCN2S(=O)(=O)c1ccccc1,AC50,[1],"5.01 µM [rising, partial curve]"
CCOC(=O)c1c(NC(=O)C(C)Oc2ccc(Cl)c(C)c2)sc2c1CCCC2 (configuration not stated),AC50,[1],"12.6 µM [falling, partial curve]"
CCc1ccc(NC(=O)CCCn2nc(C)c3c(C)n(-c4ccccc4)nc3c2=O)cc1,AC50,[1],"12.6 µM [falling, partial curve]"
Cc1cccc(N2CCN(C(=O)c3ccc(N4CCCC4=O)cc3)CC2)c1C,AC50,[1],"31.6 µM [falling, partial curve]"
O=c1[nH]c(CS(=O)(=O)c2ccccc2)nc2ccccc12,AC50,[1],"10 µM [falling, partial curve]"
CCCSc1nnc2n(-c3ccc(OC)cc3)c(=O)c3c4c(sc3n12)COC(C(C)C)C4 (configuration not stated),AC50,[1],"3.98 µM [falling, full curve]"
CCOCCCNc1ncnc2c1[nH]c1ccccc12,AC50,[1],"20 µM [falling, partial curve]"
CCOc1ccc(CNC(=O)C2CCN(Cc3cc4ccccc4n3Cc3ccccc3C)CC2)cc1,AC50,[1],"3.98 µM [falling, partial curve, poor fit]"
C[C@H]1C[C@@H]2[C@@H]([C@@H](O)C[C@@]3(C)[C@H]2CC[C@]3(O)C(=O)CO)[C@@]2(C)C=CC(=O)C=C12,AC50,[1],"3.98 nM [rising, full curve] [measured here: IkB-luc green channel]"
CC(=O)Nc1ccc2nc(SCCOc3ccccc3)sc2c1,AC50,[1],"3.98 µM [rising, partial curve]"
Cc1c(CNC2CCCCCC2)c(C(=O)O)c(C)n1Cc1ccc(F)cc1,AC50,[1],"25.1 µM [falling, single point]"
CCc1ccc(CN(Cc2ccco2)C(=O)COc2ccc(Cl)cc2C)cc1,AC50,[1],"25.1 µM [falling, single point]"
CCc1nc2c(cnn2-c2ccc(Cl)cc2)c(=O)n1-c1ccc(OC)c(Cl)c1,AC50,[1],"31.6 µM [falling, single point]"
O=C(CC1SC(=O)N(c2ccccc2)C1=O)Nc1ccccc1 (configuration not stated),AC50,[1],"3.98 µM [falling, full curve, poor fit]"
Cc1ccc2nc(N(Cc3cccnc3)C(=O)c3cccs3)sc2c1,AC50,[1],"0.316 µM [falling, full curve]"
CCOc1ccc(N2CC(c3nc4ccccc4n3Cc3cccc(C)c3)CC2=O)cc1 (configuration not stated),AC50,[1],"31.6 µM [falling, single point]"
O=[N+]([O-])c1cc(-c2nc(-c3ccccc3)no2)ccc1NCCc1ccccc1,AC50,[1],"39.8 µM [falling, single point]"
COc1ccc(Cl)cc1NC(=O)CSc1nc(-c2ccccc2)c2ccccc2n1,AC50,[1],"5.01 µM [falling, partial curve]"
O=C(Nc1cccc(F)c1)[C@@H](c1ccccc1)N1Cc2ccccc2C1=O,AC50,[1],"25.1 µM [falling, partial curve]"

# A section taken from the entries so far:
smiles,measurement,setting,value
Cc1ccc(NC(=O)c2ccc(NS(=O)(=O)c3c(C)noc3C)cc2)cc1C,AC50,[1],"7.94 µM [falling, partial curve]"
CCn1cc(C(=O)Nc2ccc(C(C)C)cc2)c2cc(OC)c(OC)cc2c1=O,AC50,[1],"5.01 µM [falling, partial curve]"
CCOC(=O)c1ccc(NC(=O)c2c(NCc3cc(OC)ccc3OC)sc3c2CCC3)cc1,AC50,[2],"6.31 µM [rising, single point]"
